This is one part of the list. Further columns of the screen follow, without active or inactive calls. The list favours compounds with an active or inconclusive main result. Potencies come from curve fits of mixed quality, noted in brackets.
Experiment: qHTS Assay to Find Inhibitors of Chronic Active B-Cell Receptor Signaling
Details: ABC-DLBCL IkBa-CBG/CBR reporter, luminescence ratio (green luciferase fused to IkBa over red control in TMD8 lymphoma cells), 4 h
Outline: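 TMD8 ABC-DLBCL cells carrying doxycycline-inducible green luciferase fused to IkappaBalpha plus unfused red luciferase were exposed to compounds (up to 46 uM) for 4 hrs at 37C. Activity came from the overlap-corrected green/red luminescence ratio.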

[1] = measured here: CBR red luminescence, cell number
[2] = measured here: IkBa-CBG green luminescence

| Structure (SMILES) | AC50 [1] | AC50 [2] |
| --- | --- | --- |
| Cc1ccc(-c2nc3n(n2)Cc2ccccc2-3)cc1 | 18.4 µM [falling, partial curve] | – |
| Nc1nc(N)c(N=Nc2ccc(Cl)cc2)c(=O)[nH]1 | 35.5 µM [falling, single point] | – |
| O=C(Cc1c[nH]c2ccccc12)OCC(=O)c1ccccc1 | 15.8 µM [falling, partial curve] | – |
| CC(C)C(OC(=O)Cn1nnc2ccccc21)C(=O)NC1CCCC1 (stereo unspecified) | 35.5 µM [falling, single point] | – |
| CC1=C(C(=O)N(C)C)C(c2ccc(N3CCOCC3)cc2)NC(=O)N1 (stereo unspecified) | 11.2 µM [falling, partial curve, poor fit] | – |
| O=C(Nc1c(-c2ccccc2)nc2ccccn12)c1ccccc1F | 6.31 µM [rising, single point] | – |
| COc1cc2c(cc1OC)C(c1cccc(F)c1)CC(=O)N2 (stereo unspecified) | 0.562 µM [rising, full curve, poor fit] | – |
| C=CCn1c(SCC(=O)Nc2cc(C)on2)nnc1C1COc2ccccc2O1 (stereo unspecified) | 35.5 µM [falling, single point] | – |
| COc1ccc(C2C=C(c3ccccc3)Nc3ncnn32)cc1 (stereo unspecified) | 29.1 µM [falling, single point] | – |
| Cc1ccccc1C(=O)NNc1ccc(-c2csnn2)cc1 | 22.4 µM [falling, partial curve, poor fit] | – |
| O=C(Cn1c(=O)oc2ccccc21)N1CCN(c2ccccc2)CC1 | 25.9 µM [falling, single point] | – |
| COc1cc(OC)cc(-c2nc3ccccc3c(=O)n2OC(=O)c2ccc(C)c(C)c2)c1 | 8.2 µM [falling, partial curve] | – |
| CC(=O)Oc1ccc2ccccc2c1C(NC(=O)Cc1ccccc1)c1ccc(Cl)cc1 (stereo unspecified) | 35.5 µM [falling, single point] | – |
| CCCCCOc1ccc(C(=O)Nc2ccc(S(=O)(=O)Nc3cc(C)on3)cc2)cc1 | 3.55 µM [falling, partial curve, poor fit] | – |
| C=C1CCC[C@]2(C)C[C@H]3OC(=O)C(CNC(C)(CO)CO)[C@H]3CC12 (stereo partly specified) | 10 µM [falling, partial curve, poor fit] | – |
| CN(Cc1c(C(=O)N/N=C/c2ccc(O)cc2)nnn1-c1nonc1N)c1ccccc1 | 25.1 µM [falling, single point] | – |
| CC(Nc1nc(-c2ccccc2F)nc2ccccc12)c1ccccc1 (stereo unspecified) | 5.62 µM [rising, single point] | – |
| Cc1ccc2c(=O)c(C(=O)NCc3cccs3)c[nH]c2c1 | 16.4 µM [falling, single point] | – |
| NS(=O)(=O)c1ccc(Nc2nc(-c3ccccc3)cs2)cc1 | 0.92 µM [falling, full curve, poor fit] | – |
| Cc1conc1NC(c1cccs1)c1ccc2cccnc2c1O (stereo unspecified) | 3.16 µM [falling, full curve] | – |
| COCCNc1cc(C)nc2cc(-c3ccc(C)cc3)nn12 | 4.47 µM [rising, partial curve, poor fit] | – |
| Cc1cccc(C(=O)Nc2nnc(-c3ccco3)o2)c1 | 18.4 µM [falling, single point] | – |

Part of the list above in order of molar mass, descending:

| Structure (SMILES) | AC50 [1] | AC50 [2] |
| --- | --- | --- |
| C=CCn1c(SCC(=O)Nc2cc(C)on2)nnc1C1COc2ccccc2O1 (stereo unspecified) | 35.5 µM [falling, single point] | – |
| CC(C)C(OC(=O)Cn1nnc2ccccc21)C(=O)NC1CCCC1 (stereo unspecified) | 35.5 µM [falling, single point] | – |
| CC(Nc1nc(-c2ccccc2F)nc2ccccc12)c1ccccc1 (stereo unspecified) | 5.62 µM [rising, single point] | – |

Later entries

| Structure (SMILES) | AC50 [1] | AC50 [2] |
| --- | --- | --- |
| C=CCN1C(=O)C2(C(C(=O)c3ccc(C)o3)=C(O)C(=O)N2CCCN2CCOCC2)c2ccccc21 (stereo unspecified) | 11.2 µM [rising, partial curve, poor fit] | – |
| CCOc1ccc(S(=O)(=O)N2CCOCC2)cc1NC(=O)Cc1c(F)cccc1Cl | 29.1 µM [rising, single point] | – |
| COc1ccc(CCNC(=O)Cn2c([N+](=O)[O-])cnc2C)cc1OC | 12.6 µM [rising, single point] | – |
| CC(C)(C)c1ccc(C(=O)N2CCCCCC2=O)cc1 | 4.61 µM [falling, partial curve] | – |
| O=C(NC1CCCCC1)C(c1cccs1)N(CC1CCCO1)C(=O)c1csnn1 (stereo unspecified) | 2.82 µM [falling, partial curve, poor fit] | – |
| COc1ccc(OC)c(NC(=O)Nc2cccc(Cn3cccn3)c2)c1 | 29.1 µM [falling, single point] | – |
| Cc1nn(-c2ccccc2)c(C)c1C1C(C#N)=C(N)Oc2n[nH]c(C)c21 (stereo unspecified) | 18.4 µM [falling, partial curve] | – |
| COC1=C/C(=C/c2c(N)n3nc(-c4ccc(C)cc4)sc3nc2=O)C=CC1=O | 14.1 µM [falling, single point] | – |
| COc1ccc(CCNS(=O)(=O)c2c(C)nc3scc(C)n3c2=O)cc1OC | 35.5 µM [rising, single point] | – |
| O=C(O)c1c(NC(=O)c2cccc3ccccc23)sc2c1CCC2 | 6.51 µM [falling, partial curve, poor fit] | – |
| COCCNC(=O)c1cc(-c2ccccc2)n(Cc2cc(C)no2)n1 | 1.3 µM [rising, full curve, poor fit] | – |
| COC(=O)c1ccc(NC(=O)c2cn(-c3cccc(C)n3)cn2)cc1 | 2.24 µM [falling, partial curve, poor fit] | – |
| O=C(Cc1ccccc1[N+](=O)[O-])NC1CC2CCC1C2 (stereo unspecified) | 8.91 µM [rising, partial curve, poor fit] | – |
| CCC(C)c1ccc(NC(=O)c2ccco2)cc1 (stereo unspecified) | 0.158 µM [rising, full curve, poor fit] | 12.6 µM [falling, partial curve, poor fit] |
| O=S(=O)(Nc1cc(Sc2ncn[nH]2)c(O)c2ccccc12)c1ccccc1 | 5.01 µM [falling, full curve, poor fit] | – |
| Cc1[nH]nc(SCC(=O)N2CCCC2)c1[N+](=O)[O-] | 10 µM [falling, single point] | – |
| O=S(=O)(c1ccsc1)N1CC=C(c2ccccc2)CC1 | 6.31 µM [rising, partial curve] | – |
| CCc1ccc(OCc2cccc(C(=O)N/N=C\c3cnn(C)c3C)c2)cc1 | 15.8 µM [falling, partial curve, poor fit] | – |
| O=C(Nc1ccccc1F)c1coc(=O)c(Br)c1 | 35.5 µM [rising, single point] | – |
| COC(=O)Cc1cc(=O)[nH]c(Nc2nc3ccccc3o2)n1 | 20.6 µM [falling, single point] | – |
| O=C(NCc1cccnc1)C(=O)NC1CCCCC1 | 15.8 µM [falling, single point] | – |
| CCOC(=O)C1CCN(C(=O)COc2cccc3ccccc23)CC1 | 2.82 µM [falling, partial curve] | – |

| Structure (SMILES) | AC50 [1] | AC50 [2] |
| --- | --- | --- |
| COc1cccc(C(=O)Nc2cnn(C(C)C)c2)c1 | 22.4 µM [falling, single point] | 3.55 µM [rising, full curve, poor fit] |
| CS(=O)(=O)c1nc(S(=O)(=O)c2ccc(Cl)cc2)c(N2CCC(O)CC2)s1 | 14.1 µM [falling, single point] | – |
| Cc1cc(Br)ccc1OCCCCNC(C)(C)C | 22.4 µM [falling, single point] | – |
| CC(C)(C)c1ccc(CN(Cc2ccccc2)C(c2ccccn2)c2nnnn2C(C)(C)C)cc1 (stereo unspecified) | 0.13 µM [rising, full curve, poor fit] | – |
| Cc1ccc(Cn2nnnc2CN2CCC(c3nc4ccc(Cl)cc4[nH]3)CC2)cc1 | 29.1 µM [falling, single point] | – |
| COc1ccc(Oc2nccc(OC)c2C#N)cc1 | 23.1 µM [rising, partial curve, poor fit] | – |
| C=CC[C@@H](CC(=O)N[C@H](CO)Cc1ccccc1)C(=O)N[C@H](COC(=O)[C@@H](CC=C)Cc1ccc(F)cc1)Cc1c[nH]c2ccccc12 | 18.4 µM [falling, single point] | – |
| C/C(CC(=O)Nc1ccc([N+](=O)[O-])cc1)=N\NC(=O)c1ccccc1O | 2 µM [falling, full curve] | – |
| COc1ccc(-c2nc(CC(=O)Nc3cccc(S(=O)(=O)NC4=NCCC4)c3)cs2)cc1 | 23.1 µM [falling, single point] | – |
| Cc1ccc(C)c(C(=O)CCC(=O)OCn2nnc3ccccc3c2=O)c1 | 0.92 µM [rising, full curve, poor fit] | – |
| COc1cccc(NC(=O)[C@H](C)NC(=O)N2CCn3c2nc2ccccc23)c1 | 10 µM [falling, partial curve] | – |
| O=C(c1ccc(F)cc1)N1CCC(n2nnc3ccccc32)CC1 | 20 µM [rising, partial curve, poor fit] | – |
| CN(C)CCc1cc2c(c3c1ccc1ccccc13)OCO2 | 20 µM [falling, single point] | – |
| O=c1[nH]c(/C(Cl)=C/c2cc(Cl)ccc2O)nc2cc(Cl)ccc12 | 0.461 µM [rising, full curve] | – |
| CS(=O)(=O)N1CCSC1c1ccc(Br)cc1 (stereo unspecified) | 0.1 µM [falling, full curve, poor fit] | – |
| COc1ccc(OC)c(NC(=O)COC(=O)c2ccc(OC)c(S(=O)(=O)N3CCOCC3)c2)c1 | 0.82 µM [rising, full curve, poor fit] | – |
| CC1=NNC(=O)c2ccccc2O1 | 0.794 µM [rising, full curve, poor fit] | – |
| C(=N\Nc1ncnc2sc3c(c12)CCC3)/c1ccncc1 | – | 15.8 µM [falling, partial curve, poor fit] |
| CC(C)(C)c1nnc2sc(SCC(=O)c3ccc(Cl)cc3)nn2c1=O | 3.16 µM [falling, partial curve, poor fit] | – |
| CCCC(=O)Nc1c(-c2ccc(C)cc2)c(=O)c2ccccc2n1C | 12.6 µM [rising, single point] | – |
